These are yes or no findings as the source states them, for the method shown. In cells and extracts the contact can be indirect. Some binding calls cover weakened binding; strength is not graded here.
Target: talin (Drosophila melanogaster (endogenous in Drosophila extracts)) (UniProt Q9VSL8)
Assay: co-IP; Drosophila extract immunoprecipitated with 40 ug anti-talin antibody adsorbed to Protein A Sepharose; blot stained with anti-CalpB; lysis buffer 50 mM Tris pH 7.5, 150 mM NaCl, 10 mM EDTA, 0.1% Triton X-100, 0.01% beta-mercaptoethanol, protease inhibitors

Protein sequences, listed by entry. Tags and fused reporters are not part of them.
UniProt Q9VSL8: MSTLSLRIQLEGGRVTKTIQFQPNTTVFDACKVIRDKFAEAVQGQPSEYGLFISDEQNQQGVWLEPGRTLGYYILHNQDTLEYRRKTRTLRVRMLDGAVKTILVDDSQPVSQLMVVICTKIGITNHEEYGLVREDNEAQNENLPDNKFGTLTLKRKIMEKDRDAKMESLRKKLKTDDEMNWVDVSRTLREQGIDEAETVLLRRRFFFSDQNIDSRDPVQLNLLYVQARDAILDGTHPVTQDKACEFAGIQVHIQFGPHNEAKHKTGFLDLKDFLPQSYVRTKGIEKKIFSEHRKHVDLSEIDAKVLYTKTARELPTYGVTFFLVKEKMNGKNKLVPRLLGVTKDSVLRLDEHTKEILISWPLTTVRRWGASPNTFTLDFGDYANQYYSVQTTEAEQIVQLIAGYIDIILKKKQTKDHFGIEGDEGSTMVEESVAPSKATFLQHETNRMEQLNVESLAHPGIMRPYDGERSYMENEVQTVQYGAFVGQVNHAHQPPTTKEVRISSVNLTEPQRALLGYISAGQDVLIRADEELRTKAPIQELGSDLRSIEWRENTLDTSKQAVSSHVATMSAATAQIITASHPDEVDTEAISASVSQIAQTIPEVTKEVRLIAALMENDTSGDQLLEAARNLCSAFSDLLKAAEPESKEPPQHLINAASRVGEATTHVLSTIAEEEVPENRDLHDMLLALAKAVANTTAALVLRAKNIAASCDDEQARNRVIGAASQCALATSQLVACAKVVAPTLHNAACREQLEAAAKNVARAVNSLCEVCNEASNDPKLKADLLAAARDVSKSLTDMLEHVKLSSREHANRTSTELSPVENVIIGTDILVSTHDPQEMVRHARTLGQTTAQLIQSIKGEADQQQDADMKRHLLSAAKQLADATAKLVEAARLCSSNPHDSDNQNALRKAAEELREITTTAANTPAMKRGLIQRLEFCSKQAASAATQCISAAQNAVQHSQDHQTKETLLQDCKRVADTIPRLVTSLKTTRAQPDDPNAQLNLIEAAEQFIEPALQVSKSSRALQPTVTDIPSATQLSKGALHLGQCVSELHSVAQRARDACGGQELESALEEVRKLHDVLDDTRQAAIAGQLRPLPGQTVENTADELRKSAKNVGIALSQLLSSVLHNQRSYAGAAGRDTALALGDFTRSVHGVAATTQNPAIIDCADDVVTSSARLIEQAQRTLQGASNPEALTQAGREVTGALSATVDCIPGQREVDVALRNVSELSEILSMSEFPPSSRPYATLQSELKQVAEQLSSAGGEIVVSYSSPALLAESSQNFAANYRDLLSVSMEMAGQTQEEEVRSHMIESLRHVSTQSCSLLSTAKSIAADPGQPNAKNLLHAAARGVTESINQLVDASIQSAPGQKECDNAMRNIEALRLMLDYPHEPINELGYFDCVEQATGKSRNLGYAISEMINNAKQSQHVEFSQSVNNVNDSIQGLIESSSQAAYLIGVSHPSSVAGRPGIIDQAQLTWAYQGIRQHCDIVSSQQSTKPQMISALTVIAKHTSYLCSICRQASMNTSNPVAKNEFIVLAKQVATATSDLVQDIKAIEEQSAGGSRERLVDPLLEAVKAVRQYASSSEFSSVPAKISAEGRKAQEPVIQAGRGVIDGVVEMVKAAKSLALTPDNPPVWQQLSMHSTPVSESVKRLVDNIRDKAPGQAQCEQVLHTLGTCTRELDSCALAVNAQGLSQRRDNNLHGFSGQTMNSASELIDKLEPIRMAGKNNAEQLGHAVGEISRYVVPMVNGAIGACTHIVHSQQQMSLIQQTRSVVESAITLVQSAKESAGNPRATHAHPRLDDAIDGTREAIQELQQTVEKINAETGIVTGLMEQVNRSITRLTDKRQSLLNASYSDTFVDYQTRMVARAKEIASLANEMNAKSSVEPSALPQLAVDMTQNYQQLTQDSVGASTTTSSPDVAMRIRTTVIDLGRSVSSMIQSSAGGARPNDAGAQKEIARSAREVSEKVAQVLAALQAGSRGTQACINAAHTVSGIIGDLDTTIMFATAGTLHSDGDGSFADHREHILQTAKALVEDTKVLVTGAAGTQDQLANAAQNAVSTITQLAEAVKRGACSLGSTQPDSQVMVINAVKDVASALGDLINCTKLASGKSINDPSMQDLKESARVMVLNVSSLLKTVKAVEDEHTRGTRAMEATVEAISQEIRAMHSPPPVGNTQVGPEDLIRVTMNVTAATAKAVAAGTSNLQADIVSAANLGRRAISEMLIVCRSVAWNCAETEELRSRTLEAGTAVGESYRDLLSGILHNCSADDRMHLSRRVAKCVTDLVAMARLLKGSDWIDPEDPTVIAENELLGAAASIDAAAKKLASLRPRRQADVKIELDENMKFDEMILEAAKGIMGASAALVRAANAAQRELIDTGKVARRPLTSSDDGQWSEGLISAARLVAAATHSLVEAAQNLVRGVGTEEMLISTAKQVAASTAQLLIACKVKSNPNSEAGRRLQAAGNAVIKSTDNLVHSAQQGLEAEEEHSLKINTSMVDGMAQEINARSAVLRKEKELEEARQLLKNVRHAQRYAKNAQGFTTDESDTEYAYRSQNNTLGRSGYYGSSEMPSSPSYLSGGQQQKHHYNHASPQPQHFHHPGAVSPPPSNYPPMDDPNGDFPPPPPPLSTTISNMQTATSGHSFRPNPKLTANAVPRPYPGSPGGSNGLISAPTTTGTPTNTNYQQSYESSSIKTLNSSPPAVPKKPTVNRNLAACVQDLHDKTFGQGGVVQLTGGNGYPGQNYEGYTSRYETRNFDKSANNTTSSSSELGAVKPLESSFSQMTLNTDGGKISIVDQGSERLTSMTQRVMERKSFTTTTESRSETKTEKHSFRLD

binding: binds
B1: CalpB (enzyme, UniProt Q9VT65 1-925)
chain: MYGIDNYPKNYHASGIGLVNLAALGYSKNEVSGGNEGGGAPKPKAGLYPSLPYPSSESVGGMPYVVKQTSHAQNASYAGPTMGMGMPVPEAPSAPAPYPSATPYPGSGLYPSLPSANVSSLPYPTAPMAPYPTGMPYPTGMPQPNLPYPAAPLAPYPSAMPGLPGMPMPYAPMPTSPAPQHNIGFPALPYPTAPPPESAPTQEEEPSVGVAELSFTSVKVPENQNMFWMGRKATSARQNSVSKGDFQSLRDSCLANGTMFEDPDFPATNASLMYSRRPDRYYEWLRPGDIADDPQFFVEGYSRFDVQQGELGDCWLLAAAANLTQDSTLFFRVIPPDQDFQENYAGIFHFKFWQYGKWVEVVIDDRLPTYNGELIYMHSTEKNEFWSALLEKAYAKLHGSYEALKGGTTCEAMEDFTGGVTEWYDIKEAPPNLFSIMMKAAERGSMMGCSLEPDPHVLEAETPQGLIRGHAYSITKVCLMDISTPNRQGKLPMIRMRNPWGNDAEWSGPWSDSSPEWRFIPEHTKEEIGLNFDRDGEFWMSFQDFLNHFDRVEICNLSPDSLTEDQQHSSRRKWEMSMFEGEWTSGVTAGGCRNFLETFWHNPQYIISLEDPDDEDDDGKCTAIVALMQKNRRSKRNVGIDCLTIGFAIYHLTDRDMQVKPQGLNFFKYRASVARSPHFINTREVCARFKLPPGHYLIVPSTFDPNEEGEFIIRVFSETRNNMEENDDEVGFGETDDRIAPSLPPPTPKEEDDPQRIALRRLFDSVAGSDEEVDWQELKRILDHSMRDVMVGSDGFSKDAVRSMVAMLDKDRSGRLGFEEFEALLTDIAKWRAVFKLYDTRRTGSIDGFHLRGALNSAGYHLNNRLLNALAHRYGSREGQIPFDDFLMCAIKVRTFIEMFRERDTDNSDTAFFNLDDWLERTIYS

— PMC3441222
